# Reference: the supplement of paper PMC8728848
# This is one part of the list.
# B1: LlpB (Pseudomonas fluorescens) (protein)
# chain: MGSSHHHHHHSSGLVPRGSHMASSGFRIILFNSANNGTAILPPRNCLVAGQYLESPSKRYKLILEADGNLRLYDNGVPIWVADSSVPYTYVDNRPNTNLVTCFYMQGSAFLVDRVGSRTWATIGDWIDGAADRAYLQVQDDGNVVVVDGVPRWARFGFTPAALPNRGVFYPDHGTGPLPSFPVWSWTF
# Tests used:
# Test in all cases: glycan array binding signal (z-score within array); higher = stronger binding
# Conditions in all cases: glycan notation: IUPAC condensed, linker removed
# Gal(b1-4)Glc = target: Gal(b1-4)Glc
# Summary of the method: (§1)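 Arrays were curated from the Consortium for Functional Glycomics database, 3228 in total, and kept only where the protein sequence was available. Binding is expressed as a within-array Z-score. This score was averaged across arrays of the same protein sequence at different concentrations or buffers and across linkers, and negative values can be read as non-binding.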
# Gal(b1-4)Glc6S = target: Gal(b1-4)Glc6S
# Summary of the method: as §1
# Gal(b1-4)GlcNAc = target: Gal(b1-4)GlcNAc
# Summary of the method: as §1
# [1] = target: Gal(b1-4)GlcNAc(a1-6)Gal(b1-4)GlcNAc
# Summary of the method: as §1
# Gal(b1-4)GlcNAc(b1-2)Man = target: Gal(b1-4)GlcNAc(b1-2)Man
# Summary of the method: as §1
# [2] = target: Gal(b1-4)GlcNAc(b1-2)Man(a1-3)Man(b1-4)GlcNAc(b1-4)GlcNAc
# Summary of the method: as §1
# [3] = target: Gal(b1-4)GlcNAc(b1-2)Man(a1-3)[Gal(b1-4)GlcNAc(b1-2)Man(a1-6)]Man(b1-4)GlcNAc(b1-4)GlcNAc
# Summary of the method: as §1
# [4] = target: Gal(b1-4)GlcNAc(b1-2)Man(a1-3)[Gal(b1-4)GlcNAc(b1-2)Man(a1-6)]Man(b1-4)GlcNAc(b1-4)[Fuc(a1-6)]GlcNAc
# Summary of the method: as §1
# [5] = target: Gal(b1-4)GlcNAc(b1-2)Man(a1-3)[Gal(b1-4)GlcNAc(b1-2)Man(a1-6)][Gal(b1-4)GlcNAc(b1-4)]Man(b1-4)GlcNAc(b1-4)[Fuc(a1-6)]GlcNAc
# Summary of the method: as §1
# [6] = target: Gal(b1-4)GlcNAc(b1-2)Man(a1-3)[Gal(b1-4)GlcNAc(b1-2)Man(a1-6)][GlcNAc(b1-4)]Man(b1-4)GlcNAc(b1-4)[Fuc(a1-6)]GlcNAc
# Summary of the method: as §1
# [7] = target: Gal(b1-4)GlcNAc(b1-2)Man(a1-3)[GlcNAc(b1-2)Man(a1-6)]Man(b1-4)GlcNAc(b1-4)GlcNAc
# Summary of the method: as §1
# [8] = target: Gal(b1-4)GlcNAc(b1-2)Man(a1-3)[GlcNAc(b1-4)][Gal(b1-4)GlcNAc(b1-2)Man(a1-6)]Man(b1-4)GlcNAc(b1-4)GlcNAc
# Summary of the method: as §1
# [9] = target: Gal(b1-4)GlcNAc(b1-2)Man(a1-3)[Man(a1-6)]Man(b1-4)GlcNAc(b1-4)GlcNAc
# Summary of the method: as §1
# [10] = target: Gal(b1-4)GlcNAc(b1-2)Man(a1-6)Man(b1-4)GlcNAc(b1-4)GlcNAc
# Summary of the method: as §1
# [11] = target: Gal(b1-4)GlcNAc(b1-2)Man(a1-6)[GlcNAc(b1-2)Man(a1-3)]Man(b1-4)GlcNAc(b1-4)GlcNAc
# Summary of the method: as §1
# [12] = target: Gal(b1-4)GlcNAc(b1-2)Man(a1-6)[Man(a1-3)]Man(b1-4)GlcNAc(b1-4)GlcNAc
# Summary of the method: as §1
# [13] = target: Gal(b1-4)GlcNAc(b1-2)[Gal(b1-4)GlcNAc(b1-4)]Man(a1-3)[Gal(b1-4)GlcNAc(b1-2)Man(a1-6)]Man(b1-4)GlcNAc(b1-4)GlcNAc
# Summary of the method: as §1
# [14] = target: Gal(b1-4)GlcNAc(b1-2)[Gal(b1-4)GlcNAc(b1-4)]Man(a1-3)[Gal(b1-4)GlcNAc(b1-2)[Gal(b1-4)GlcNAc(b1-6)]Man(a1-6)]Man(b1-4)GlcNAc(b1-4)GlcNAc
# Summary of the method: as §1
# [15] = target: Gal(b1-4)GlcNAc(b1-2)[Gal(b1-4)GlcNAc(b1-4)]Man(a1-3)[GlcNAc(b1-4)][Gal(b1-4)GlcNAc(b1-2)Man(a1-6)]Man(b1-4)GlcNAc(b1-4)GlcNAc
# Summary of the method: as §1
# [16] = target: Gal(b1-4)GlcNAc(b1-2)[Gal(b1-4)GlcNAc(b1-4)]Man(a1-3)[GlcNAc(b1-4)][Gal(b1-4)GlcNAc(b1-2)[Gal(b1-4)GlcNAc(b1-6)]Man(a1-6)]Man(b1-4)GlcNAc(b1-4)GlcNAc
# Summary of the method: as §1
# [17] = target: Gal(b1-4)GlcNAc(b1-2)[Gal(b1-4)GlcNAc(b1-6)]Man(a1-6)[Gal(b1-4)GlcNAc(b1-2)Man(a1-3)]Man(b1-4)GlcNAc(b1-4)GlcNAc
# Summary of the method: as §1
# [18] = target: Gal(b1-4)GlcNAc(b1-2)[Gal(b1-4)GlcNAc(b1-6)]Man(a1-6)[Gal(b1-4)GlcNAc(b1-2)Man(a1-3)]Man(b1-4)GlcNAc(b1-4)[Fuc(a1-6)]GlcNAc
# Summary of the method: as §1
binder,measurement,setting,value
B1,glycan array binding signal (z-score),Gal(b1-4)Glc,-0.337
same,glycan array binding signal (z-score),Gal(b1-4)Glc6S,-0.442
same,glycan array binding signal (z-score),Gal(b1-4)GlcNAc,0.117
same,glycan array binding signal (z-score),[1],-0.411
same,glycan array binding signal (z-score),Gal(b1-4)GlcNAc(b1-2)Man,3.72
same,glycan array binding signal (z-score),[2],1.16
same,glycan array binding signal (z-score),[3],-1.33
same,glycan array binding signal (z-score),[4],-1.12
same,glycan array binding signal (z-score),[5],-1.71
same,glycan array binding signal (z-score),[6],-1.69
same,glycan array binding signal (z-score),[7],-1.02
same,glycan array binding signal (z-score),[8],-0.624
same,glycan array binding signal (z-score),[9],0.362
same,glycan array binding signal (z-score),[10],-0.158
same,glycan array binding signal (z-score),[11],-0.351
same,glycan array binding signal (z-score),[12],-0.481
same,glycan array binding signal (z-score),[13],-1.23
same,glycan array binding signal (z-score),[14],-0.308
same,glycan array binding signal (z-score),[15],-0.213
same,glycan array binding signal (z-score),[16],0.932
same,glycan array binding signal (z-score),[17],-0.828
same,glycan array binding signal (z-score),[18],1.11

# Reformatted bar-delimited: entries from further up.
binder | measurement | setting | value
B1 | glycan array binding signal (z-score) | [11] | -0.351
same | glycan array binding signal (z-score) | [12] | -0.481
